Measurements as given in PMC10226619.

Sequences of proteins named here, by UniProt entry; tags and fusion partners are left off.
UniProt P35177: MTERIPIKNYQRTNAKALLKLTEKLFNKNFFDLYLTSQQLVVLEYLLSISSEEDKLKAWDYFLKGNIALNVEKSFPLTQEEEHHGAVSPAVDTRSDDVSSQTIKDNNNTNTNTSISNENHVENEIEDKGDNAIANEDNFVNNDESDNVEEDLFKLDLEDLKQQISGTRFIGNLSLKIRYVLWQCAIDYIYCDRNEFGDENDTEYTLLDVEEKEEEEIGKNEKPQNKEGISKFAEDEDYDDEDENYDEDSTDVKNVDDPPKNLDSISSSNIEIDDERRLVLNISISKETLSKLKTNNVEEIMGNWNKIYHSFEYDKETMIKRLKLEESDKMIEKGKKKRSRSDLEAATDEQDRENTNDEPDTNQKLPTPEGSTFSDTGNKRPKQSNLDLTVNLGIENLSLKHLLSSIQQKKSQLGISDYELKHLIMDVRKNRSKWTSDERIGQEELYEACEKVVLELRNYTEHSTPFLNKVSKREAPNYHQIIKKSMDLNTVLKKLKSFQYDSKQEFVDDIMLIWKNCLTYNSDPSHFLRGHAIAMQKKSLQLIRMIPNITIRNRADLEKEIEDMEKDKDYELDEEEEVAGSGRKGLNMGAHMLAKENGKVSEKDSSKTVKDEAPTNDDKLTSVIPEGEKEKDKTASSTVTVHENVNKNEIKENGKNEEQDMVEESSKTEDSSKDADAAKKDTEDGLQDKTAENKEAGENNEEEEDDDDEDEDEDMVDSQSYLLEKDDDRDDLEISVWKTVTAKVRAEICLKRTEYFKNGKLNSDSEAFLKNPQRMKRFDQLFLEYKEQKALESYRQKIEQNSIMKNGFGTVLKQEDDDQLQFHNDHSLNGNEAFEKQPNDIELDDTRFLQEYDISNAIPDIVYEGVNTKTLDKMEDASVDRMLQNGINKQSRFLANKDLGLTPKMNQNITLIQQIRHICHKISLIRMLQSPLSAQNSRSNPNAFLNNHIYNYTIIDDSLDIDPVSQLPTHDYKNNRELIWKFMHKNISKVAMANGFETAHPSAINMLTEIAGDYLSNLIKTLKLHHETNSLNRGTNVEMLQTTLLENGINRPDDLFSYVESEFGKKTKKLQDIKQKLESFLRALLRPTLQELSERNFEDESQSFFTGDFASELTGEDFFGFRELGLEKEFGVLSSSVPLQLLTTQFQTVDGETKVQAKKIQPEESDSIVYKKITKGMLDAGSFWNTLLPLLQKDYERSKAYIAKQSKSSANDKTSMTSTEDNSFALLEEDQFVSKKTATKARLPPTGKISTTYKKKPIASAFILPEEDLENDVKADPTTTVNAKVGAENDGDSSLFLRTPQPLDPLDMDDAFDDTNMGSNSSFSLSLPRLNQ

T1: Ada2 with N terminal 3× FLAG tag (wild type) (S. cerevisiae) (UniProt Q02336)
T1 sequence: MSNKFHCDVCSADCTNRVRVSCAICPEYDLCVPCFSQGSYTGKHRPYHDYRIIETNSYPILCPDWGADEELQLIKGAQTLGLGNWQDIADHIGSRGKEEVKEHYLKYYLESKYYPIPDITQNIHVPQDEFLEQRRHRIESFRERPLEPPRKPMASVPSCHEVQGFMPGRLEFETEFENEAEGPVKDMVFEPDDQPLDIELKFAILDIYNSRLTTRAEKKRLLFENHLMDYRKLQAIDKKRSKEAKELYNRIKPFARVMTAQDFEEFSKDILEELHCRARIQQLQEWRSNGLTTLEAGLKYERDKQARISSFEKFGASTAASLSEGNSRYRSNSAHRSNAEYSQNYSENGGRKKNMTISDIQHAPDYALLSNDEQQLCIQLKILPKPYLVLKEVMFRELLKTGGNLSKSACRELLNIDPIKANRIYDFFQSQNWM

T2: Ada2 ΔSWIRM (Δ residues 353–434) with 3xFlag on the N-terminus (S. cerevisiae) (UniProt Q02336)
T2 sequence: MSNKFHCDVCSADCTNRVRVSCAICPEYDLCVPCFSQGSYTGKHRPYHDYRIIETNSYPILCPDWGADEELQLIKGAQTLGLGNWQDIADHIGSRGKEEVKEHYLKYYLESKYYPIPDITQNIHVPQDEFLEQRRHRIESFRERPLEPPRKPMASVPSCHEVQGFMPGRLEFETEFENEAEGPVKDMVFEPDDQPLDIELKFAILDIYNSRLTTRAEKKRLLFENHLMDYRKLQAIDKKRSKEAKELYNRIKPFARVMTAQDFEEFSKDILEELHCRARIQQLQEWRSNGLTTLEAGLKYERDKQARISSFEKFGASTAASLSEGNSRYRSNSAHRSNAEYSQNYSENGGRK


Columns and labels:
[1] = biological target: Spt7 with a C-terminal TAP tag (S. cerevisiae) (UniProt P35177); assay: affinity purification with mass spectrometry; SAGA purified by Spt7-TAP from yeast with WT Ada2 (YCW14): IgG Sepharose, TEV cleavage, HiTrap Q; LC-MS/MS, total spectrum counts normalized to Spt7
[2] = biological target: T1, Ada2 with N terminal 3× FLAG tag (wild type) (S. cerevisiae); assay: affinity purification with mass spectrometry; FLAG-Ada2 WT or ΔSWIRM from 2–4 mg yeast whole cell extract on ANTI-FLAG M2 affinity gel overnight at 4 °C, TBS washes; 3× FLAG peptide elution (TIMSTOF, 2 replicates) or on-resin trypsin digestion (TMT, 1 replicate); abundances normalized to Ada2
[3] = biological target: T2, Ada2 ΔSWIRM (Δ residues 353–434) with 3xFlag on the N-terminus (S. cerevisiae); assay: as above

| Binder | binding [1] | binding [2] | binding [3] |
| --- | --- | --- | --- |
| Ada2 (wild type, endogenous) (protein, UniProt Q02336 1-434) MSNKFHCDVCSADCTNRVRVSCAICPEYDLCVPCFSQGSYTGKHRPYHDYRIIETNSYPILCPDWGADEELQLIKGAQTLGLGNWQDIADHIGSRGKEEVKEHYLKYYLESKYYPIPDITQNIHVPQDEFLEQRRHRIESFRERPLEPPRKPMASVPSCHEVQGFMPGRLEFETEFENEAEGPVKDMVFEPDDQPLDIELKFAILDIYNSRLTTRAEKKRLLFENHLMDYRKLQAIDKKRSKEAKELYNRIKPFARVMTAQDFEEFSKDILEELHCRARIQQLQEWRSNGLTTLEAGLKYERDKQARISSFEKFGASTAASLSEGNSRYRSNSAHRSNAEYSQNYSENGGRKKNMTISDIQHAPDYALLSNDEQQLCIQLKILPKPYLVLKEVMFRELLKTGGNLSKSACRELLNIDPIKANRIYDFFQSQNWM | binds |  |  |
| Ada3 (endogenous) (protein, UniProt P32494 1-702) MPRHGRRGKLPKGEKLPKKEGGDNTPSKLLSSMLKTLDLTFERDIGMLNGKSVRSIPNKKTLLELQSQLDSLNEILGTIARGDQETIEALRKIRDSKNEKQANDEKQETSNADGQHESSTATEETNIIDKGVQSPPKPPPSNEISGTIENDVESIKQAADNMAKEEINEDKDLQVHRDQPREKRPFDSETENRATENENTQRPDNKKQKIDVDKMENDPTVKNPKSEFVVSQTLPRAAAALGLFNEEGLESTGEDFLKKKYNVASYPTNDLKDLLPGELPDMDFSHPKPTNQIQFNTFLAFVENFFKDLSDDNLKFLKMKYIIPDSLQFDKTYDPEVNPFIIPKLGPLYTDVWFKDENDKNSAYKKPSPYSNDASTILPKKSANELDDNALESGSISCGPLLSRLLSAVLKDDNDKSELQSSKIIRDGGLPRTGGEDDIQSFRNNNNDTVDMTLSQENGPSVQTPDNDIDEEASFQAKLAENKGSNGGTTSTLPQQIGWITNGINLDYPTFEERLKRELKYVGIYMNLPKDENNPNSDDPDWVTGREDDEISAELRELQGTLKQVTKKNQKRKAQLIPLVERQLAWQEYSSILEDLDKQIDQAYVKRIRVPKKRKKHHTAASNNVNTGTTSQIAQQKAANSSLKSLLDKRQRWINKIGPLFDKPEIMKRIPNESVFKDMDQEEDEDEADVFAQNTNKDVELN | binds | binds | binds |
| Sgf29 (endogenous) (protein, UniProt P25554 1-259) MDGYWDVVVSSLQDIYNANEVIPFDDELQTKKLNFLNMSKDQLQLHLNTFQEHMENVNRVHRILDNVRSNLSLMLNQSREEKSEENTEDAEEGEGTRMALSQGKKAVGKVGRSYWTSEYNPNAPILVGSEVAYKPRRGSADGEWIQCEVLKVVADGTRFEVRDPEPDELGNSGKVYKCNRKELLLIPPGFPTKNYPPGTKVLARYPETTTFYPAIVIGTKRDGTCRLRFDGEEEVDKETEVTRRLVLPSPTALANLARK | binds | binds | binds |
| Spt8 (endogenous) (protein, UniProt P38915 1-602) MDEVDDILINNQVVDDEEDDEEMLSGLENDSKQDLEGNDDGGEDEEDDDDDDEDDDDDEDEREDDDEQEDDDGEDDAARMDKTATPTNEHQHDEQKAAAAGAGGAGDSGDAVTKIGSEDVKLSDVDGGVGSREASSSTHEASANGEVYEYYKHMLNAAQIADSYNIYPTAAIPIQTHVNALAVSRGLKYLFLGGSDGYIRKYDLLNTLEGKLSLTILQKHSLAESIQNAGILQSYWENEIPQKKSEMKLSANKTDYEPKVSPVHSLEVQSECLFILSGLQNGGITMQGVRYMEGSIAHYFKGRNGHTQIVNILRLNGQEDRFLSGSWDKRLLEWDLQTGDIVNEFKKSRSELSSLEMRPLYSSVDVSGNVNSGKENENADDDMDSLFGDEDEDEKQDAGNEPVETGDGSNGEENKEQISEESLNIVYDESVFMTSGLNGSVHIWDRRMTQSPALSLERGAGVPPWCLSACWGVDGDHVYAGRRNACVEQFDLKMPSKPIHNLKLPSISGPVSCVKAMPNNKHLLCASRDNIRLYNVEIAVDASNSTTKSSKVPFLIVPGHHGGIISNLYLDPTSRFIISTSGNRGWQGNSTDTTLIYDIDLE |  | binds | binds |
| Ahc1 (endogenous) (protein, UniProt Q12433 1-566) MMSPAQDKLQHQHHNPNSSSSSSSKMTNVYQVTTPKSPQDLENNMDEPFKMDTATSNPDKDSENTQRLKYECAKGEIQNVLNLHIMLNHKHVRHLRRNVQKVNAKLALLETLHKDTGLLNKIERTYQLKIKQHQQHSVLGGHFHDSTATENTNASNYNLSYPVLSDYNINCQPLSSSSNRNLSTTRIPHHHYHTRSKSNGLLLEPSALRPANSNIIDYRLTGSKSLSEAITKPTPVSLPHSNSDGISSPRSSSISPLDEQPGFQILPFKPSQMHLNHRRNYSSTCLTSNSGIIGKTENNEPIFRRYDGILVIITCSKCDRSGFTSAQGIVNHTRLKHSKLYSSQPLAVLNNQKLLPNDKQDPEILSKFKKLNLDPNKDYLPSDIAIPKPQSPINHSENHTRAPKTVKNTPHLEKLYQNKEDFKKLIDMVNETPDDLNEYLKQREIQLRYQKEQEEESSKSDDEASYVPSPSLSATATTTTTTDPPSPPVLSSSLQRKLLRKRKLSLNSSTPMEDLPLRERLRANPTDKKPRKAALLTNELEGPDPAAKSSSYYNLRSKSRLRGSHT |  | binds | binds |
| Ahc2 (endogenous) (protein, UniProt P25649 1-128) MITPKGTHDAVAKFQKTDLHQDLDYIVLQQRRTQLETLINERESFVKNLCSLFHKIQNTKNYQEFVDVLAENRDLLREIFTVENGFQKQKWISNDDIPQIDWDKFALDINAYIAENDQLLALYEDGLL |  | binds |  |

Results are given in words; binding and its absence hold for the method and conditions named. In cells and extracts the contact can be indirect. These calls come from enrichment with a bait or labelling near it, and not all partners need be listed. For part of these data: Where a sequence is shown, tags or fusion partners need not be part of it.
